Among the data in US12171233B1, “Ethyl {[N′-(3-chlorophenyl)-N-(2,4-dichlorobenzoyl) carbamimidoyl]sulfanyl}acetate as an eco-friendly insecticidal agent against Spodoptera littoralis (Boisd.)” (priority 2023, dated 2024) are Slope values, retold here.

The data set relates to Spodoptera littoralis larvae (2nd and 4th instar). Nature of the data set: Insecticidal bioassay screening (castor leaf dip). As to conditions: regression (LDP) line, 72 h. Type of data set: in vivo. The method, then:
In this experiment, castor leaves are immersed in each of the previously prepared concentrations of the components for 10 seconds and then left to dry for 60 minutes. Larvae of the second and fourth instars of each checked strain are prepared with treated leaves in gauze-covered glass containers for 72 hrs. An untreated control is made in which leaves are dipped in triton x-100 and distilled water only. Then the preserved leaves were removed & fresh, untreated leaves were provided for 72 hours. Three replicates (10 larvae each) were checked for each concentration. Daily inspection was carried out for all treatments and mortality percentages were recorded 3 days (72 hours) after treatment. The average mortality percentage was corrected employing Abbott's formula. The corrected mortality rate for each of the previously synthesized compounds is statistically calculated according to Finney (1970). Through this rate, the corresponding concentration test lines (LDP lines) are assessed. Fifty and ninety percent mortality are determined, and the regression values for the checked products were previously evaluated.

For `O=C(NC(=S)Nc1cccc(Cl)c1)c1ccc(Cl)cc1Cl` [Compound 1, 2,4-dichloro-N-[(3-chlorophenyl)carbamothioyl]benzamide], the Slope was 1.02 ± 0.35 (2nd instar larvae) and 0.95 ± 0.36 (4th instar larvae).
Turning to `O=C(NC(=O)c1c(F)cccc1F)Nc1ccc(Cl)cc1` [Diflubenzuron, reference compound], the Slope reads like this: (2nd instar larvae) 1.20 ± 0.46; (4th instar larvae) 1.2 ± 0.36.
